From article PMC3172237

Amino acid sequences for entries named in this document (tags omitted).
UniProt A2A8L1: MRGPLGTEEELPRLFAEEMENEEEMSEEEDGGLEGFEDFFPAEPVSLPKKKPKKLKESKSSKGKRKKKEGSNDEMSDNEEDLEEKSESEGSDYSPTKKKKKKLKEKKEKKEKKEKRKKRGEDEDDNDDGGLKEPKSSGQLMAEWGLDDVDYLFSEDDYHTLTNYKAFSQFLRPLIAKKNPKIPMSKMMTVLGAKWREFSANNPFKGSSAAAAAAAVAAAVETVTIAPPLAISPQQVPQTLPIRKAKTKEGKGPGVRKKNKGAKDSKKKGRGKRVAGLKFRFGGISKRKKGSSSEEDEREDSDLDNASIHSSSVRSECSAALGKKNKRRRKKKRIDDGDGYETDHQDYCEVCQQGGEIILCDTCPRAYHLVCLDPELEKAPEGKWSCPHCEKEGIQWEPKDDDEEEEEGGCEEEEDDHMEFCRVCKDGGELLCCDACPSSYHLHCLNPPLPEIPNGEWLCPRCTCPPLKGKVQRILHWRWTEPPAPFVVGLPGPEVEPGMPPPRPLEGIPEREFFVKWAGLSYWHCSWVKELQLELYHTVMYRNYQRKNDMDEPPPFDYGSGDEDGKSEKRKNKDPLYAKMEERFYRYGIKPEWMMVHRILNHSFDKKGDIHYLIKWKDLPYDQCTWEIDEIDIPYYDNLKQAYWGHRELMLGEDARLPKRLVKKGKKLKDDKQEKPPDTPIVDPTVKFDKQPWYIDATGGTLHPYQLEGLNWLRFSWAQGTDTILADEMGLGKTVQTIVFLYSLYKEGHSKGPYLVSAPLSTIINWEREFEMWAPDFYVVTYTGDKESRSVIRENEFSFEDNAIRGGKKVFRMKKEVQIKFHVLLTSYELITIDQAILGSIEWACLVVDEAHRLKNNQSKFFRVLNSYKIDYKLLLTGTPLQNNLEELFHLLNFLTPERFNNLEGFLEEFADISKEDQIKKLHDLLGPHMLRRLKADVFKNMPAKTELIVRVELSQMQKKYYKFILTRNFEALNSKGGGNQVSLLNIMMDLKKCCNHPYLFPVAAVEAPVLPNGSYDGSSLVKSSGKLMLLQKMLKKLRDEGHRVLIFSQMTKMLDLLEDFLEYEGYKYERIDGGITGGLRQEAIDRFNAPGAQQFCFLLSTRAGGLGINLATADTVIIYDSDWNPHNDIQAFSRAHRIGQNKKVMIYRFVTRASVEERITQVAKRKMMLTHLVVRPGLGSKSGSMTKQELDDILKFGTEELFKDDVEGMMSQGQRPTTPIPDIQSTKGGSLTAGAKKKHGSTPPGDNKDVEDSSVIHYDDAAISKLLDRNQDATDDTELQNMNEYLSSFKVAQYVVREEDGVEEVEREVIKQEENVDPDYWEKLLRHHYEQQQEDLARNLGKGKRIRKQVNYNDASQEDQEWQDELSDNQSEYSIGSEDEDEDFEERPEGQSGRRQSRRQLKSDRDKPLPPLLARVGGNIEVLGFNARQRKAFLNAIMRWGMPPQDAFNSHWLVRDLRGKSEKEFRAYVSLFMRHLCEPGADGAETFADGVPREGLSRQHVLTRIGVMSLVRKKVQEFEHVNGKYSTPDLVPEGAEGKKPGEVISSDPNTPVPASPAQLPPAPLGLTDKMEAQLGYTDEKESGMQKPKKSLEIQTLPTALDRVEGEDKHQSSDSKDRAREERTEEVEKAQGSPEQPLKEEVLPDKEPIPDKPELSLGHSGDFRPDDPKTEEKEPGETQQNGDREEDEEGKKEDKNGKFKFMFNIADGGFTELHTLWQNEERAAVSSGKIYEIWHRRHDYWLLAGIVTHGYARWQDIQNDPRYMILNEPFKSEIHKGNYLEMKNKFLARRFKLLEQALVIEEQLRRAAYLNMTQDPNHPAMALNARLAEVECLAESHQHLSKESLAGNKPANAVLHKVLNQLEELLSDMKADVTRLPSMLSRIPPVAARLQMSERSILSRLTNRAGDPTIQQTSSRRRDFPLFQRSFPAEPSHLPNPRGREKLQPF
UniProt P70288: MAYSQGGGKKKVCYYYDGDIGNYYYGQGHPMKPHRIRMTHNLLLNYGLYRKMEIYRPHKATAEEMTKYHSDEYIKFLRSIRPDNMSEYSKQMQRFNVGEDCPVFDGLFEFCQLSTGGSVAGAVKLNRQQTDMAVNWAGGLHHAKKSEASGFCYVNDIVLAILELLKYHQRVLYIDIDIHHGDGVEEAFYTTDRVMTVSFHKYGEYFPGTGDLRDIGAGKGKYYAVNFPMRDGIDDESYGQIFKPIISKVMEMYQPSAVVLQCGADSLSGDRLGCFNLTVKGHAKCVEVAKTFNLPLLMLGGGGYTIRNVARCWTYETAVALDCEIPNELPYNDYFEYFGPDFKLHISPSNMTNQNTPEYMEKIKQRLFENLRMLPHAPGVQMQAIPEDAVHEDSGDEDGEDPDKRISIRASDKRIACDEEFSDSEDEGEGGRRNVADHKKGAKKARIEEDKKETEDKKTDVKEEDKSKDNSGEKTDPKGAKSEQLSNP

Target: CHD5 (mouse (endogenous in mouse brain)) (UniProt A2A8L1)
Experiment: affinity purification with mass spectrometry; CHD5 antiserum (HD5A-A Day 77) crosslinked to protein A beads; mouse brain nuclear extract (12 mg) diluted 1:4 in RIPA buffer, overnight at 4°C; washed with TX-100 buffer; eluted with 0.1 M glycine pH 2.5; bands cut from an 8% SDS gel and sequenced

- binding: binds
Substance: HDAC2 (from UniProt P70288 1-488)

No constants are given. Whether binding was seen depends on the method and setting. In cells and extracts the contact can be indirect. A yes stands for co-enrichment or nearness to the bait. Other partners may have been found.
